Measured values: article doi:10.1101/2024.05.31.596772

Biological target: microtubules (pig (purified from porcine brain))
Assay: in vitro microtubule dynamics assay

| binding | Binder |
| --- | --- |
| binds | GFP-CAMSAP3 (protein, UniProt Q80VC9 1-1252) MVEAAPAGSGPLRRTFLVPEIKSLDQYDFSRAKAAASLAWVLRAAFGGAEHVPPELWEPFYTDQYAQEHVKPPVTRLLLSAELYCRAWRQALPQLEPSPSPSALLALLARRGTVPSLPEHPVREADLKHQPILMGAHLAVIDALMVAFSFEWTKTLPGPLALSSLEHKLLFWVDTTVRRLQEKTEQEAAQRASPAAPLDGASPAQPSIRYRKDRAIARRAPCFPNVTTLQDLASGAALAATIHCYCPQLLRLEEVCLKDPMSVADSLYNLQLVQDFCASHLPRGCPLSLEDLLYVPPPLKVNLVVLLAEMYMCFEVLKPDFVQAKDLPDGHAVSPRNTETVPSQNNSGSSSPVFNFRHPLLSPGGPQSPLRGSTGSLKSSPSMSHMEALGKAWNRQLSRPLSQAVSFSTPFGLDSDVDVVMGDPVLLRSVSSDSLGPPRPVSTSSRNSAQPAPESGDLPTIEEALQIIHSAEPRLLPDGAADGSFYLHSPEGLSKPPLSPYPPEGASKPLSDRLNKAPIYISHPENPSKSSPCSTGEILKPPPPSEGSPKAVASSPAANNSEVKMTSFAERKKQLVKAEAESGLGSPTSTPVAPEALSSEMSELGARLEEKRRAIEAQKRRIEAIFAKHRQRLGKSAFLQVQPREAAGEAEEEAELGSVPGGERPAGEGQGEPSLRHKSVTFSPDLGPVPPEGLGDYNRAVSKLSAALSSLQRDMQRLTDQQQRLLAPPEAPGPAPPPAAWVIPGPATGPKAASPSPARRAPAARRSPGPGPSPTPRSPKHARPAELKLAPLTRVLTPPHDVDSLPHLRKFSPSQVPVQTRSSILLSEGTPPEEPTTKPALIEIPLASLGEPAADEEGDGSPPGAEDSLEEEASSEGEPRSGLGFFYKDEDKPEDEMAQKRASLLERQQRRVEEARRRKQWQEAEKEQKREEAARLAQEAPGLAFTTPVVASAAPVATLAPTTRAMAPAEEEVGPRRGDFTRLEYERRAQLKLMDDLDKVLRPRASGTGGPGRGGRRATRPRSGCCDDSALARSPARGLLGSRLSKVYSQSTLSLSTVANEAPNNLGVKRPTSRAPSPSGLMSPSRLPGSRERDWENGSNASSPASVPEYTGPRLYKEPSAKSNKFIIHNALSHCCLAGKVNEPQKNRILEEIEKSKANHFLILFRDSSCQFRALYTLSGETEELSRLAGYGPRTVTPAMVEGIYKYNSDRKRFTQIPAKTMSMSVDAFTIQGHLWQSKKPTTPKKGGGTPK |
| binds | GFP-CAMSAP3 CKK (domain or fragment, UniProt Q80VC9 1112-1246) GPRLYKEPSAKSNKFIIHNALSHCCLAGKVNEPQKNRILEEIEKSKANHFLILFRDSSCQFRALYTLSGETEELSRLAGYGPRTVTPAMVEGIYKYNSDRKRFTQIPAKTMSMSVDAFTIQGHLWQSKKPTTPKK |

These are yes or no findings as the source states them, for the method shown. A result given as binding can be weak or reduced; the word gives no strength. Where a sequence is shown, tags or fusion partners need not be part of it.
